Test results published in article PMC4411481, “Cyclic nucleotide binding and structural changes in the isolated GAF domain of Anabaena adenylyl cyclase, CyaB2” (PeerJ, 2015).

Tested on: His6-tagged GAFb domain of CyaB2
Assay: HDXMS of the GAFb domain
Design: species or system Anabaena sp. PCC 7120
Conditions: 1 mM ligand, 20 °C, 0.5-10 min

SMILES	amide exchange / solvent accessibility of N- and C-terminal helices vs unliganded protein	amide exchange, ligand-binding pocket region, vs unliganded protein
Nc1ncnc2c1ncn2[C@@H]1O[C@@H]2COP(=O)(O)O[C@H]2[C@H]1O [cAMP, adenosine 3′, 5′—cyclic monophosphate]	increased solvent accessibility	decrease in exchange
Nc1nc2c(ncn2[C@@H]2O[C@@H]3COP(=O)(O)O[C@H]3[C@H]2O)c(=O)[nH]1 [cGMP, guanosine 3′, 5′—cyclic monophosphate]	lack of alteration in the dynamics of the terminal helices	only some regions in the ligand-binding pocket showed an increase in exchange
